Percent effect of library compounds

Source: ChEMBL document CHEMBL3988442, “University of Dundee, Small-Polar-MMV Screening Library” (2021).

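Assay of Toxoplasma gondii numbers, read through their beta-galactosidase reporter with a colour substrate. Tested at 50 µM. The record gives no direction; the compounds picked for IC50 retests had high values, so higher reads as fewer parasites. Of about 18,000 compounds tested this way, about 170 (0.94%) reached 50% or more in at least one test.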

Values are the deposited “Percent Effect”, in %. How 0% and 100% were set is not recorded. Most values in the screen are low, and negative values occur. This is an unselected part of the compounds tested.

{"compound": "CCOc1ccc(Cl)cc1CNCCNCCO", "percent effect": 8.734}
{"compound": "Cc1cn(-c2ccc(C#N)cc2)nc1N", "percent effect": -9.418}
{"compound": "O=C(NCC1(O)CCCNCC1)c1ccc(=O)[nH]c1", "stereo": "stereo not drawn", "percent effect": -12.11}
{"compound": "O=S(=O)(c1ccc(O)cc1)N1CCCCC1", "percent effect": -8.467}
{"compound": "CC(O)CN1CCN(CCC(=O)N2CCCCC2)CC1", "stereo": "stereo not drawn", "percent effect": 11.35}
{"compound": "Cc1n[nH]c(C)c1NS(=O)(=O)Cc1ccc(F)cc1", "percent effect": -7.834}
{"compound": "N[C@@H](c1ccccc1)[C@@H](N)c1ccccc1", "percent effect": -11.39}
{"compound": "COCC(C)OC(=O)c1scnc1C", "stereo": "stereo not drawn", "percent effect": -5.668}
{"compound": "Cc1ncccc1C(C)O", "stereo": "stereo not drawn", "percent effect": -0.8369}
{"compound": "CCC1CCC(NCCO)CC1", "stereo": "stereo not drawn", "percent effect": 0.541}
{"compound": "Cc1cc(C)nc(-n2ncc(C(N)=O)c2N)n1", "percent effect": -3.561}
{"compound": "NCCN1CCN(c2ccc(F)cc2)CC1", "percent effect": 0.788}
{"compound": "Cc1cccc(CNC(=O)N2CCOC(C)C2)n1", "stereo": "stereo not drawn", "percent effect": 8.409}
{"compound": "COc1ccc(-c2noc(C3(O)CCCC3)n2)cn1", "percent effect": 15.8}
{"compound": "NS(=O)(=O)c1ccc(NC(=O)Cn2ccnc2)cc1", "percent effect": 14.5}
{"compound": "CCC(Cn1ccnc1)NC(=O)c1cc(CO)ccn1", "stereo": "stereo not drawn", "percent effect": 10.68}
{"compound": "CCN(CCO)c1ncnc2onc(C)c12", "percent effect": -2.813}
{"compound": "O=C(c1ccccc1Cl)N1CCNCC1", "percent effect": -0.53}
{"compound": "CC(C)c1nc(NCc2cccnc2)n(C)n1", "percent effect": 18.87}
{"compound": "O=C(Nc1cnc(O)nc1O)c1ccccc1Br", "percent effect": -31.93}
{"compound": "CC(N)CC(=O)Nc1cccc(N2CCCC2)c1", "stereo": "stereo not drawn", "percent effect": 13.68}
{"compound": "CC(=O)N1CSCC1C(=O)N1CCCCCC1", "stereo": "stereo not drawn", "percent effect": -15.25}
{"compound": "C[C@@H]1NCC[C@@H]1NC(=O)OC(C)(C)C", "percent effect": 6.049}
{"compound": "CC(C)COc1cccc(CC(N)=O)c1", "percent effect": 3.231}
{"compound": "COc1ccccc1OC(C)CN", "stereo": "stereo not drawn", "percent effect": -3.888}
{"compound": "COCCn1cnnc1CN(C)Cc1c[nH]c(C)n1", "percent effect": 13.9}
{"compound": "NC(=O)N1CCC(NCc2sccc2Cl)CC1", "percent effect": 6.062}
{"compound": "CCCNC(=O)CC(NCCC)C(N)=O", "stereo": "stereo not drawn", "percent effect": -15.65}
{"compound": "CC(O)CN(CCN)C(=O)OC(C)(C)C", "stereo": "stereo not drawn", "percent effect": -7.411}
{"compound": "Nc1nnc(CS(=O)(=O)Cc2ccccc2)s1", "percent effect": 3.095}
{"compound": "OC1CCN(Cc2ccccc2F)CC1", "percent effect": -16.34}
{"compound": "CC(SCc1cccc(C(=O)N(C)C)c1)C(N)=O", "stereo": "stereo not drawn", "percent effect": -9.883}
{"compound": "Brc1ccc(C2CNC2)nc1", "percent effect": 11.33}
{"compound": "CCN(CC)C(=O)CCc1c(C)nn(C)c1C", "percent effect": -3.745}
{"compound": "Cc1cc(C)cc(C2(C(=O)N(C)CC(N)=O)CCC2)c1", "percent effect": 27.33}
{"compound": "CCN1CCCC1CNC(=O)c1ccc(C(C)=O)s1", "stereo": "stereo not drawn", "percent effect": -19.84}
{"compound": "Cc1ccsc1C(=O)N(C)C", "percent effect": 7.314}
{"compound": "CNCCc1nc2cc(OC)ccc2[nH]1", "percent effect": 4.588}

The first 4 entries again:

{"compound": "CCOc1ccc(Cl)cc1CNCCNCCO", "percent effect": 8.734}
{"compound": "Cc1cn(-c2ccc(C#N)cc2)nc1N", "percent effect": -9.418}
{"compound": "O=C(NCC1(O)CCCNCC1)c1ccc(=O)[nH]c1", "stereo": "stereo not drawn", "percent effect": -12.11}
{"compound": "O=S(=O)(c1ccc(O)cc1)N1CCCCC1", "percent effect": -8.467}